B1: Fibulin-1 (protein, UniProt P23142 30-703)
chain: DVLLEACCADGHRMATHQKDCSLPYATESKECRMVQEQCCHSQLEELHCATGISLANEQDRCATPHGDNASLEATFVKRCCHCCLLGRAAQAQGQSCEYSLMVGYQCGQVFQACCVKSQETGDLDVGGLQETDKIIEVEEEQEDPYLNDRCRGGGPCKQQCRDTGDEVVCSCFVGYQLLSDGVSCEDVNECITGSHSCRLGESCINTVGSFRCQRDSSCGTGYELTEDNSCKDIDECESGIHNCLPDFICQNTLGSFRCRPKLQCKSGFIQDALGNCIDINECLSISAPCPIGHTCINTEGSYTCQKNVPNCGRGYHLNEEGTRCVDVDECAPPAEPCGKGHRCVNSPGSFRCECKTGYYFDGISRMCVDVNECQRYPGRLCGHKCENTLGSYLCSCSVGFRLSVDGRSCEDINECSSSPCSQECANVYGSYQCYCRRGYQLSDVDGVTCEDIDECALPTGGHICSYRCINIPGSFQCSCPSSGYRLAPNGRNCQDIDECVTGIHNCSINETCFNIQGGFRCLAFECPENYRRSAATLQQEKTDTVRCIKSCRPNDVTCVFDPVHTISHTVISLPTFREFTRPEEIIFLRAITPPHPASQANIIFDITEGNLRDSFDIIKRYMDGMTVGVVRQVRPIVGPFHAVLKLEMNYVVGGVVSHRNVVNVHIFVSEYWF

Sequences of proteins named here, by UniProt entry; tags and fusion partners are left off. Residues count along the entry.
UniProt P04003, residues 49-597: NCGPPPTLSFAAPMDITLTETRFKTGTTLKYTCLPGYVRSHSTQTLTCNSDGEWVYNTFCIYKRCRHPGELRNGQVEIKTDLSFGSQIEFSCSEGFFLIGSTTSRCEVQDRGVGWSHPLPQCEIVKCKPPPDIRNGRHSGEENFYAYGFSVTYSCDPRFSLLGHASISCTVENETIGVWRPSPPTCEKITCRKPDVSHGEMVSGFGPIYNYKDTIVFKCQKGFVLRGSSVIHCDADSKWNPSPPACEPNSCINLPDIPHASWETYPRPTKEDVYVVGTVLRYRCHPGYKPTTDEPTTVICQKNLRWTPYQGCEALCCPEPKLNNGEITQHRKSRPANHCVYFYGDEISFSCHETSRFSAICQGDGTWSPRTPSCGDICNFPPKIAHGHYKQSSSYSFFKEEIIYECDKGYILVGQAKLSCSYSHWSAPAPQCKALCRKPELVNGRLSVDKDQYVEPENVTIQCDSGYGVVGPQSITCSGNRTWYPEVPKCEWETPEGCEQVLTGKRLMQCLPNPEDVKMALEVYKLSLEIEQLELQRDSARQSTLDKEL
UniProt P02675, residues 45-491: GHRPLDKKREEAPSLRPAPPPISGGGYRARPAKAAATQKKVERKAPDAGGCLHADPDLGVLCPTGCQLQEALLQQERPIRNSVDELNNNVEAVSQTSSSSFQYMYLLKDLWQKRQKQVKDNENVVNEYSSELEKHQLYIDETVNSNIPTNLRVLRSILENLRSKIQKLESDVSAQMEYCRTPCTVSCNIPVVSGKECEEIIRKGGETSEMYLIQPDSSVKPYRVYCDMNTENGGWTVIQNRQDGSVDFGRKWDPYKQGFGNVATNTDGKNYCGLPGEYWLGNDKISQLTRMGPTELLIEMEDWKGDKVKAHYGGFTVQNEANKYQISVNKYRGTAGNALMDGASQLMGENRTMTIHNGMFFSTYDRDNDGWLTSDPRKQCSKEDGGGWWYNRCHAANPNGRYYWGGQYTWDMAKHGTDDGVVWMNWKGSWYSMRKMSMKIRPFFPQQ

These are yes or no findings as the source states them, for the method shown. In cells and extracts the contact can be indirect. A yes stands for co-enrichment or nearness to the bait. Other partners may have been found.

The assay deals with complement evasion factor (CEF), recombinant Spy0136 (Streptococcus pyogenes SF370) (UniProt Q9A1R6). As to the kind of experiment: affinity purification with mass spectrometry; rCEF coupled to CNBr-activated sepharose 4B; 100 µl fresh human plasma diluted to 500 µl in TSA buffer (10 mM Tris-HCl pH 8.0, 140 mM NaCl), 4°C 30 min; washed three times with RIPA buffer (500 mM NaCl); reducing SDS-PAGE, Coomassie bands cut out, LC-MS/MS; uncoupled beads as negative control; only the target purified.
As to “C4BPA (from human plasma) (from UniProt P04003 49-597)”, the binding entry was “binds”.
Regarding “fibrinogen β-chain (from UniProt P02675 45-491)”, the binding entry is on record as “binds”.
In the case of B1 it was “binds”.

For the origin of these results see publication PMC8803112.
